No constants are given. Whether binding was seen depends on the method and setting. In cells and extracts the contact can be indirect. These calls come from enrichment with a bait or labelling near it, and not all partners need be listed.
Key:
[1] = molecular target: AtEH1/Pan1-GS (Arabidopsis) (UniProt F4HUN9); assay: affinity purification with mass spectrometry
[2] = molecular target: TML-GS (Arabidopsis) (UniProt Q9FKM4); assay: affinity purification with mass spectrometry

By UniProt entry, the sequences of proteins in these tests, tags left out. Where a name states a change or a piece, a line headed by the entry shows the natural chain unless it says otherwise.
UniProt F4J8D3: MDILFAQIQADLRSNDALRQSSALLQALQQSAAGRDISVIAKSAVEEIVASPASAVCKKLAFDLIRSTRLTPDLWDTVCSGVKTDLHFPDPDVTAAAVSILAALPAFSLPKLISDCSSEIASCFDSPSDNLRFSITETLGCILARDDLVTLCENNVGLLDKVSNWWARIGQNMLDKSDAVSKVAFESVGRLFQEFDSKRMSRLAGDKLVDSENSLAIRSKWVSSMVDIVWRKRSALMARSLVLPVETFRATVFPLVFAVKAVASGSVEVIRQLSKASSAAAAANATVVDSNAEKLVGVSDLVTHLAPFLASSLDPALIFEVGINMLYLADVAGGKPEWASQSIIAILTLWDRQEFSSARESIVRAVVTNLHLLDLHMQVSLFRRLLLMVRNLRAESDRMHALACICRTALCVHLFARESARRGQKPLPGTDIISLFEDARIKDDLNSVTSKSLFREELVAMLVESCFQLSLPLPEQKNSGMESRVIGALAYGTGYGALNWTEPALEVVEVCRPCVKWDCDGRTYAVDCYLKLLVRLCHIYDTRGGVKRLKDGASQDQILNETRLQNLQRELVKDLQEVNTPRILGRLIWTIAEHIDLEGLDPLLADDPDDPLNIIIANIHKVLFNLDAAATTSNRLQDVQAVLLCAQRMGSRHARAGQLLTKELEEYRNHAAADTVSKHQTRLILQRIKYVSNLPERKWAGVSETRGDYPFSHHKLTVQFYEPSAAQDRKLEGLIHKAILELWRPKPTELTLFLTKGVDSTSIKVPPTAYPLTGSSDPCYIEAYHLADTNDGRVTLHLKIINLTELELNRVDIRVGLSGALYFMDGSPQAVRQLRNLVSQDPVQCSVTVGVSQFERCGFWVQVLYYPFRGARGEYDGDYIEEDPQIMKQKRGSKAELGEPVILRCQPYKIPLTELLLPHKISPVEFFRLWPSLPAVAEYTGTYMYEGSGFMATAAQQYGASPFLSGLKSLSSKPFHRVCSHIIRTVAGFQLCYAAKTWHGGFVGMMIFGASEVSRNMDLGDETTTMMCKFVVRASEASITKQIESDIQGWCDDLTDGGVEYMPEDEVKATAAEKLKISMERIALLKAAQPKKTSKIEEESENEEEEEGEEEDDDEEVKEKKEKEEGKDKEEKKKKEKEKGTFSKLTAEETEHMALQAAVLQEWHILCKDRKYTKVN
UniProt F4KIH8: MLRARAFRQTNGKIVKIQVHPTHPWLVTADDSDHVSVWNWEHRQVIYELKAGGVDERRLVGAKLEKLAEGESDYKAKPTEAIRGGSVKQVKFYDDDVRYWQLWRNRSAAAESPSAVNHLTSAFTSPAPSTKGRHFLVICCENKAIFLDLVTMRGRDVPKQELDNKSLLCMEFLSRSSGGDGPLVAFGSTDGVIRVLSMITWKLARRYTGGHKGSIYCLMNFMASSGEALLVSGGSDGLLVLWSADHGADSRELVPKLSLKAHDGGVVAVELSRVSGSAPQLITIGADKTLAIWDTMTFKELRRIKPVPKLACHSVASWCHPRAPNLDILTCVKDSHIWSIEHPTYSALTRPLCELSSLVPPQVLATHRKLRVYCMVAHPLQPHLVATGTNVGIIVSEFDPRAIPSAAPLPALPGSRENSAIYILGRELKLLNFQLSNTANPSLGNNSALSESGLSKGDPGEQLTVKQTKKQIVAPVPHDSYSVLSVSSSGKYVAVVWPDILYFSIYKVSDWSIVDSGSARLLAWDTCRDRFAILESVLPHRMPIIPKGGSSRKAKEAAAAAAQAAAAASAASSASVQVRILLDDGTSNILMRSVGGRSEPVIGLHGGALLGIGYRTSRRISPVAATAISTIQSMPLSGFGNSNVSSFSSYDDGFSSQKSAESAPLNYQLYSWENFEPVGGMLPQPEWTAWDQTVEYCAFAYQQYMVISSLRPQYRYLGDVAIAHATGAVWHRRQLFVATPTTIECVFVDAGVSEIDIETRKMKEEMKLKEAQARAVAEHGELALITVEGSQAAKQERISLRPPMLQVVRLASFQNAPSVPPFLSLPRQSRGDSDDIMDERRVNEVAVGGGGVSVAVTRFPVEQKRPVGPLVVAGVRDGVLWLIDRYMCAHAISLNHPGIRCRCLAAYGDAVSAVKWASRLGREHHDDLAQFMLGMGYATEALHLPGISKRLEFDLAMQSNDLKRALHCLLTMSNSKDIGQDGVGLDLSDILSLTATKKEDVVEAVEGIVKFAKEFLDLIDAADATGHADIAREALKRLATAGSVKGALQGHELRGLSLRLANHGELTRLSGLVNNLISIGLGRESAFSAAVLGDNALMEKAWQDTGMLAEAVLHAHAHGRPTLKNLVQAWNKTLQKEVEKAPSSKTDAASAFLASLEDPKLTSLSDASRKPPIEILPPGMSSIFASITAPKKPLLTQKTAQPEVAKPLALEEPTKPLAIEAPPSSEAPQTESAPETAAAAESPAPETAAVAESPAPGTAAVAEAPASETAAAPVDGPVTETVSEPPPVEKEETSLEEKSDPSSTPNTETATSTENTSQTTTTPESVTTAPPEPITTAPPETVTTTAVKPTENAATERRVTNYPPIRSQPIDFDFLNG

| binding [1] | binding [2] | Substance |
| --- | --- | --- |
| binds | binds | TPLATE (from UniProt F4J8D3 1-1176) |
|  | binds | AtEH1/Pan1 (from UniProt F4HUN9) |
| binds | binds | LOLITA (from UniProt Q9XI32) |
| binds | binds | TWD40-2 (from UniProt F4KIH8) |
